Experimental data reported in article PMC12307804.
No constants are given. Whether binding was seen depends on the method and setting. Binding seen in cells or lysates may run through a third protein. Some results given as binding are weak or reduced against the parent protein; the word gives no strength.

Amino acid sequences for entries named in this document (tags omitted).
UniProt Q9C5T4: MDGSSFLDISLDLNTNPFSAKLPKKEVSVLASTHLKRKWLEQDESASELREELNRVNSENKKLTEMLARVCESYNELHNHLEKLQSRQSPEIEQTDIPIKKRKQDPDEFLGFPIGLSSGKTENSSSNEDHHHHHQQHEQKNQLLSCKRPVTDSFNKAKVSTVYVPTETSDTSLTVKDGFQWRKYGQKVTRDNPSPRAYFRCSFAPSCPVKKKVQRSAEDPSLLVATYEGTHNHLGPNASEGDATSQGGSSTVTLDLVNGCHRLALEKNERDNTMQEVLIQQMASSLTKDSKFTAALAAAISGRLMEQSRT

Experiments:
[1] = molecular target: WRKY18 (Arabidopsis thaliana) (UniProt Q9C5T4); assay: split reporter; BiFC 2in1 (pBiFCt2in1-NN, both partners in one vector, 35S promoter, RFP as internal control) in transiently transformed N. benthamiana leaves; confocal microscopy two days after infiltration; YFP/RFP ratio for each nucleus
[2] = molecular target: WRKY18 (Arabidopsis thaliana) (UniProt Q9C5T4); assay: split reporter; ratiometric BiFC (pBiFCt-2in1-NN) in transiently transformed Arabidopsis protoplasts, overnight incubation in the dark, read by flow cytometry (CytoFLEX)

binding [1]: binds
binding [2]: binds
Substance: WRKY18 (from UniProt Q9C5T4 1-310)
